Source: ChEMBL document CHEMBL3988442, “University of Dundee, Small-Polar-MMV Screening Library” (2021).

Each number is a percent effect as filed.
How 0% and 100% were set is not recorded. Most values in the screen are low, and negative values occur.
Compounds were drawn at random from those tested, without regard to their results.

Mtb growth Cornell: 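Whole-cell assay for inhibitors of Mycobacterium tuberculosis growth, labelled Cornell in the record; the read-out is not stated. The concentration is filed as 10 mM, unlikely as a test dose, so the dose is not known. Higher means stronger inhibition (inferred from two other growth screens of the library). Size under these conditions: about 53,000 compounds, about 900 of them at 50% or above in at least one test.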
Mtb heat-shock: 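Assay on Mycobacterium tuberculosis, filed only as a heat shock assay from Cornell; the read-out is not stated. The concentration is filed as 10 mM, unlikely as a test dose, so the dose is not known. The record gives no direction; compounds that gave an IC50 in retests scored well above the rest, so higher reads as stronger inhibition. About 69,000 compounds were tested under these conditions; 1.4% (about 930) showed 50% or more at least once.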

{"compound": "Cn1cc(CN(C(=O)c2ccc3ncsc3c2)C2CC2)cn1", "Mtb growth Cornell": -27.09, "Mtb heat-shock": -46.42}
{"compound": "Cc1nc(NCc2cccnc2)cc(C2COCCN2)n1", "stereo": "stereo not given", "Mtb growth Cornell": 44.77, "Mtb heat-shock": -0.6071}
{"compound": "CNc1snc(C)c1C(=O)N1CCCC(n2ccnc2C)C1", "stereo": "stereo not given", "Mtb growth Cornell": -24.05, "Mtb heat-shock": -17.91}
{"compound": "CC(C)c1nc(CCN(C)C(=O)C2COc3ccccc3C2)no1", "stereo": "stereo not given", "Mtb growth Cornell": 7.928, "Mtb heat-shock": -9.311}
{"compound": "Cc1csc(N2CCN(C(=O)CCn3cccn3)CC2)n1", "Mtb heat-shock": 1.597}
{"compound": "COc1cccc(CNc2nc(C)cc(C)n2)c1OC", "Mtb growth Cornell": -4.208, "Mtb heat-shock": -20.27}
{"compound": "CC(=O)N(Cc1noc(C2CC2)n1)C1CCN(Cc2ccncc2)C1", "stereo": "stereo not given", "Mtb growth Cornell": -11.63, "Mtb heat-shock": -2.088}
{"compound": "CCNC(=O)NC(=O)CN1CCC(c2c[nH]c3ccc(OC)cc23)CC1", "Mtb growth Cornell": -3.46, "Mtb heat-shock": -8.927}
{"compound": "C[C@@H]1CN(C2CCN(c3ccccc3F)CC2)CC[C@]1(C)O", "Mtb growth Cornell": 30.12, "Mtb heat-shock": 12.15}
{"compound": "COc1ccc(N2CCC(N3C[C@H](NC(C)=O)[C@@H](C(C)C)C3)CC2)cc1", "Mtb growth Cornell": 33.6, "Mtb heat-shock": 1.117}
{"compound": "Cc1ccc2nc(C)cc(C(=O)NCc3csc(N(C)C)n3)c2c1", "Mtb heat-shock": 10.34}
{"compound": "Cc1nn(C)cc1S(=O)(=O)NCC(c1ccccc1)N1CCCCCC1.Cl", "stereo": "stereo not given", "Mtb growth Cornell": -29.77, "Mtb heat-shock": -15.55}
{"compound": "CCOC(=O)[C@H]1CNC[C@H]1C(=O)OCC.Cl", "Mtb growth Cornell": 36.02, "Mtb heat-shock": 0.271}
{"compound": "Cc1nc(CN2CCCC(Cn3cncn3)C2)nc2ccccc12", "stereo": "stereo not given", "Mtb heat-shock": -73.76}
{"compound": "CN1CCN(C(=O)CCCc2ccccn2)c2ccc(F)cc21", "Mtb growth Cornell": 9.748, "Mtb heat-shock": -0.4397}
{"compound": "O=C(O)C(F)(F)F.O=C(O)C(F)(F)F.O=C(O)C(F)(F)F.c1cncc(COCc2cncc3c2CCN(Cc2ccoc2)C3)c1", "Mtb growth Cornell": -2.788, "Mtb heat-shock": 2.729}
{"compound": "O=c1c(NCc2ccccn2)c(NCC(O)CN2CCOCC2)c1=O", "stereo": "stereo not given", "Mtb growth Cornell": 10.38, "Mtb heat-shock": 6.24}
{"compound": "CC(CN1CCCCCC1)NCc1nncn1C1CCCCC1", "stereo": "stereo not given", "Mtb growth Cornell": -36.78, "Mtb heat-shock": 6.265}
{"compound": "O=S(=O)(NCCCn1cncn1)c1ccc2c(c1)CCO2", "Mtb growth Cornell": -16.59, "Mtb heat-shock": -10.42}
{"compound": "CNC(=O)NCC(=O)N1CCCC1Cc1cccc(F)c1", "stereo": "stereo not given", "Mtb heat-shock": 7.91}
{"compound": "CN(C)c1cc(C(=O)N2CCCC2c2cnn(C)c2)ccn1", "stereo": "stereo not given", "Mtb growth Cornell": -1.523, "Mtb heat-shock": -13.14}
{"compound": "Cc1nn2cccnc2c1C(=O)NCc1ccccc1OC1CCC1", "Mtb heat-shock": 20.66}
{"compound": "O=C(O)C(F)(F)F.[H][C@@]12OCCN(C(=O)C3=CCCC3)[C@@]1([H])CC[C@@H]2Oc1ccccn1", "Mtb heat-shock": -3.554}
{"compound": "Cc1c(C(=O)NCC(C)(C)S(C)(=O)=O)cccc1-c1ccccn1", "Mtb growth Cornell": -7.018, "Mtb heat-shock": 3.036}
{"compound": "Cc1nc[nH]c1CN1CCC2(CC1)CC(Nc1ncccn1)CO2.O=C(O)C(F)(F)F", "stereo": "stereo not given", "Mtb growth Cornell": 4.972, "Mtb heat-shock": -9.994}
{"compound": "Cn1nc(CNC(=O)C2CCCC2)cc1C1CC1", "Mtb growth Cornell": -7.589, "Mtb heat-shock": 13.41}
{"compound": "CN1CCCC2(CCN(c3cc(C(F)(F)F)nc(N(C)C)n3)C2)C1=O", "stereo": "stereo not given", "Mtb growth Cornell": -0.8745, "Mtb heat-shock": -6.805}
{"compound": "[H][C@@]12CCN(CC(C)C)[C@@]1([H])CCN2C(=O)COC", "Mtb growth Cornell": -7.576, "Mtb heat-shock": 0.4237}
{"compound": "COc1ccc(F)c(CN2CCCC(O)(CNCc3ncc[nH]3)C2=O)c1", "stereo": "stereo not given", "Mtb growth Cornell": -10.93, "Mtb heat-shock": 5.284}
{"compound": "CCc1ccccc1NC(=O)c1cnn(C)c1C", "Mtb growth Cornell": 25.28, "Mtb heat-shock": 5.516}
{"compound": "Cc1ncsc1CNC(=O)N(Cc1ccccc1)CC(C)(C)O", "Mtb growth Cornell": 15.71, "Mtb heat-shock": -1.335}
{"compound": "CC(C)(CO)NC(=O)C1CCC(=O)N(Cc2ccc(Cl)cc2)C1", "stereo": "stereo not given", "Mtb growth Cornell": -46.8, "Mtb heat-shock": 17.26}
{"compound": "CC(C)[C@@H]1CN(CC(=O)NCc2ccco2)C[C@H]1NS(=O)(=O)N(C)C", "Mtb growth Cornell": 21.36, "Mtb heat-shock": 4.907}
{"compound": "CCOCCNC(=O)c1ccc(OC)cc1I", "Mtb growth Cornell": 25.74, "Mtb heat-shock": 22.34}
{"compound": "COc1cc(OC)c(-c2nc3c([nH]2)c(C2CC2)nn3C)cc1OC", "Mtb growth Cornell": 0.9172, "Mtb heat-shock": -8.4}
{"compound": "Cc1ccc(CN2CC[C@H](c3nnc(-c4ccco4)o3)C2)cc1", "Mtb growth Cornell": -1.719, "Mtb heat-shock": 5.989}
{"compound": "[H][C@]12CC[C@]([H])(CN(C(=O)CCc3n[nH]c(C)c3C)C1)N(CC=C(C)C)C2=O", "Mtb growth Cornell": -36.32, "Mtb heat-shock": -27.57}
{"compound": "O=S(=O)(NCC1(c2cccs2)CCOCC1)c1cccnc1", "Mtb growth Cornell": 27.37, "Mtb heat-shock": -3.099}
{"compound": "Cc1nc(C2CCCN2CC(=O)N(Cc2ccsc2)C2CC2)no1", "stereo": "stereo not given", "Mtb growth Cornell": 33.57, "Mtb heat-shock": 11.76}
{"compound": "COCC1c2nnn(CC3CC3)c2CCN1C(=O)c1cnccn1", "stereo": "stereo not given", "Mtb growth Cornell": 12.25, "Mtb heat-shock": 10.81}
{"compound": "Cc1cc(N(C)Cc2cc(C)on2)n2nc(C)c(C)c2n1", "Mtb growth Cornell": 42.81, "Mtb heat-shock": 82.43}
{"compound": "COc1cccc(OCC2CCCN(C(=O)c3ncoc3C3CC3)C2)c1", "stereo": "stereo not given", "Mtb growth Cornell": 15.72, "Mtb heat-shock": -28.31}
{"compound": "CCC(CO)NC(=O)Nc1ccc(OCC(F)(F)F)c(C)c1", "stereo": "stereo not given", "Mtb growth Cornell": -5.78, "Mtb heat-shock": -9.611}
{"compound": "CC1(C)OCC2(CO1)CN(C(=O)c1ccccc1Br)C2", "Mtb growth Cornell": 3.511, "Mtb heat-shock": -20.44}
{"compound": "Cn1c(C(=O)NC2CCCC2)nc2c1CCN(Cc1ccccc1)C2", "Mtb growth Cornell": -19.56, "Mtb heat-shock": -23.96}
{"compound": "COc1cccc2ncn(C(C)Cn3cccn3)c(=O)c12", "stereo": "stereo not given", "Mtb growth Cornell": -18.84, "Mtb heat-shock": 7.297}
{"compound": "COc1cccc(F)c1-c1c[nH]c(C)n1", "Mtb growth Cornell": -15.46, "Mtb heat-shock": -8.486}